Measurements: PubChem BioAssay AID1487 (National Center for Advancing Translational Sciences (NCATS), 2009)
In all, about 200,000 compounds went through this assay and about 25 (0.01%) were called active. The shares of active, inactive and inconclusive entries below differ from those in the screen. The call rests on the fitted dose curve; in most records, active means well fitted inhibition curve with a large enough effect in the signal ratio, with a control signal flat (not every such curve was filed as active); inconclusive means small, poorly fitted or top-dose-only effect, or effect the other way, or a change in a side signal; inactive means flat fitted curve, though single readings scatter; the % refers to the signal ratio. Potencies beside an inconclusive call are fits to weak or partial responses and may not hold up.

Assay: qHTS Assay for Modulators of Lamin A Splicing
Conditions: HeLa LMNA splicing GFP/RFP minigene ratio, 48 h; ratio change, negative = inhibition: at 46.1 µM (top of the series) unless noted
Method in brief: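 S3 HeLa stable clones carrying a lamin A-EGFP splicing minigene plus DsRed2 were seeded at 600 cells/well in Opti-MEM with 2% FBS, pin-dosed and incubated 48 h at 37°C. Acumen cytometry (488 nm) gave the GFP/RFP total-intensity ratio.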
On the % scale 0 is the no-effect control and ±100 the full control effect; potency means the concentration at half of the fitted maximal effect.

| SMILES | ratio change, negative = inhibition | Potency |
| --- | --- | --- |
| CCn1cnc2cc(NC(=O)c3cccs3)ccc21 | inconclusive: 11.4% [at 46 µM] |  |
| CC(C)=CCc1c2c(c3occ(-c4ccc(O)cc4)c(=O)c3c1O)C=CC(C)(C)O2 |  | inconclusive: 35.5 µM [rising, single point] |
| CCC(C)NS(=O)(=O)c1ccc(S(=O)(=O)N2CC=C(c3ccc(F)cc3)CC2)cc1 (stereo not given) |  | inconclusive: 15.8 µM [fluorescent, single point] |
| O=C(Nc1ccc(N2CCOCC2)cc1)Nc1ccc2nc(-c3ccco3)c(-c3ccco3)nc2c1 |  | inconclusive: 7.08 µM [inhibitor, partial curve] |
| Cn1nc(C(F)(F)F)c(C#N)c1N1CCN(c2cccc(C(F)(F)F)c2)CC1 | inconclusive: -9.36% |  |
| CN(C)c1ccc(-c2nccc(NCc3ccccc3)n2)cc1 | inconclusive: -38.9% |  |
| COc1ccc(-c2[nH]ncc2CN2CCC(C(=O)c3ccc(F)cc3)CC2)cc1 | inconclusive: 0.948% [at 46 µM] |  |
| COc1ccc(CNC(=O)CCC2N=C3c4ccccc4N=C(SCc4cccc(F)c4)N3C2=O)cc1 (stereo not given) | inconclusive: 23.7% [at 46 µM] |  |
| CSC1=NSC2=NC(=O)/C(=C\c3cccs3)C(=N)N12 | inconclusive: -54.9% |  |
| O=C(Cn1cnc(Cl)c1Cl)c1ccccc1 | inconclusive: -8.74% [at 46 µM] |  |
| Nc1ncnc(Sc2ncccn2)c1[N+](=O)[O-] | inconclusive: 119% [at 46 µM] |  |
| CN(C)c1ccc(/C=N/NC(=O)c2cccc(C(=O)N/N=C/c3ccc(N(C)C)cc3)n2)cc1 | inconclusive: -3.57% [at 46 µM] |  |
| C=CCc1cccc(CNc2nc3ccccc3n2CCC)c1O | inconclusive: -39.6% |  |
| COc1ccc(CCC(=O)Nc2cc(Cl)ccc2N2CCN(C)CC2)cc1 | inconclusive: -1.41% |  |
| CCSc1cc(N2CCOCC2)nc(-c2ccccc2)n1 | inconclusive: 5.79% |  |
| O=C(Nc1cccnc1)c1ccc(Oc2ccccc2)cc1 | inconclusive: -32.1% |  |
| CCCn1c2ccccc2c2cnn(CC(=O)N3CCN(c4ccccc4F)CC3)c(=O)c21 | inconclusive: 7.52% [at 46 µM] |  |
| CN(C)S(=O)(=O)n1cnc(-c2ccccc2)c1-c1ccccc1 | inactive |  |
| COc1cccc(CN2CCN(Cc3nc(-c4cccc(F)c4F)oc3C)CC2=O)c1 | inconclusive: -11% [at 46 µM] |  |
| COc1ccc(/C=N/OCC(=O)Nc2nc3ccccc3s2)cc1OC |  | inconclusive: 35.5 µM [falling, single point] |
| COC(=O)C(NNc1ccc(F)cc1)(NC(=O)c1ccccc1)C(F)(F)F (stereo not given) | inconclusive: -22.6% |  |
| COc1ccc(C2C(C(C)=O)=C(O)C(=O)N2CCc2ccccc2)c(OC)c1 (stereo not given) | inactive |  |
| CC1(C)CC(Nc2ccc(Nc3ccccc3)cc2)CC(C)(C)N1 |  | inconclusive: 35.5 µM [cytotoxic, single point] |
| COc1c2ccoc2nc2c(OC)cccc12 | inconclusive: -2.51% |  |
| CCCCNC(=O)/C=C/c1ccc(S(=O)(=O)Nc2ccc(OC)cc2)cc1 | inconclusive: -14% [at 46 µM] |  |
| Cc1occc1C(=O)N/N=C/c1ccccn1 |  | inconclusive: 35.5 µM [inhibitor, single point] |
| COc1cccc(CNC(=O)Cn2c(=O)n3nc(-c4cccc(F)c4)nc3c3ccccc32)c1 | inconclusive: -10.3% [at 46 µM] |  |

| SMILES | ratio change, negative = inhibition | Potency |
| --- | --- | --- |
| c1ccc(-c2nc(CSc3nnnn3-c3ccccc3)cs2)cc1 |  | inconclusive: 35.5 µM [fluorescent, single point] |
| COc1cc(-c2nc3cnccn3c2Nc2ccc(C)cc2)ccc1O | inconclusive: -47.4% |  |
| COc1ccc(C(=O)c2sc3nc(C)cc(-c4cccs4)c3c2N)cc1OC |  | inconclusive: 35.5 µM [fluorescent, single point] |
| CCOC(=O)Cc1cnc(NC(=O)c2ccccc2)s1 | inconclusive: 18.7% |  |
| CC[N+]1=CN(c2ccccc2)C(C)=CC1(C)C | inconclusive: 10.3% |  |
| O=C(Nc1ccc(Br)cc1F)C1CCN(c2nc3ccccc3[nH]2)CC1 | inconclusive: -15.4% [at 46 µM] |  |
| O=C(Nc1ccccc1)Nc1ccc2snnc2c1 |  | inconclusive: 35.5 µM [falling, single point] |
| Cc1ccc(-n2c(C)cc(/C=c3/sc4nc5ccccc5n4c3=O)c2C)cc1 | inactive |  |
| O=S(=O)(O)c1ccc2c(N=Nc3ccc(S(=O)(=O)O)c4ccccc34)c(O)c(S(=O)(=O)O)cc2c1 | inconclusive: 2.45% |  |
| COc1cccc(/C=c2\sc3nc(-c4cccs4)nn3c2=O)c1OC | inactive |  |
| C=CCNCC(=O)N1N=C(c2ccc3ccccc3c2)CC1c1ccc(OC)cc1 (stereo not given) |  | inconclusive: 17.8 µM [inhibitor, partial curve] |
| O=c1oc2ccccc2c(O)c1/C=N/c1ncccn1 | inactive |  |
| Cc1cccc(NC(=O)N2CCN(C(=O)c3nsc4ccccc34)CC2)c1C | inconclusive: 7.35% [at 46 µM] |  |
| CCN(CC)S(=O)(=O)c1ccc(NC(=O)Nc2cccc(C(F)(F)F)c2)cc1 | inconclusive: -35.7% |  |
| O=C(NNc1ncc(C(F)(F)F)cc1Cl)c1c(Cl)cccc1Cl | inconclusive: -31.6% |  |
| Cc1ccc(C2c3c(oc4cc(C)c(C)cc4c3=O)C(=O)N2CCCN2CCOCC2)cc1 (stereo not given) | inactive |  |
| CC(Sc1ccccn1)C(=O)Nc1ccc(S(N)(=O)=O)cc1 (stereo not given) | inactive |  |
| CCCN1C(=O)c2ccc(C(=O)Nc3nccs3)cc2C1=O | inactive |  |
| O=C(Oc1ccc2c(-c3ccccc3)cc(=O)oc2c1)C1CCCCC1 | inactive |  |
| O=c1[nH]c(=O)c2nnc(N/N=C\c3ccc(O)cc3)nc2[nH]1 | inconclusive: 4.92% [at 46 µM] |  |
| NC(=O)c1ccsc1NC(=O)c1coc2ccccc2c1=O | inactive |  |
| CC(=O)NCc1cc(-c2ccc(Cl)cc2)no1 | inconclusive: 5.37% [at 46 µM] |  |
| Cc1ccc(-c2cccc(CN3CCN(C(C)C)C(CCO)C3)c2)o1 (stereo not given) | inactive |  |
| COc1ccc2nc3oc(C(=O)Nc4cccc(C(F)(F)F)c4)cc3cc2c1 | inactive |  |
| COc1ccc(-c2ccc(CCC(=O)O)o2)cc1 | inconclusive: -15.3% [at 46 µM] |  |
| CCOc1ccc(NC(=O)CCC(=O)OC)cc1 | inconclusive: 16.2% |  |
| O=[N+]([O-])c1ccc(NCc2ccccc2)nc1 | inactive |  |

Six structures already listed, ordered by SMILES length, low to high.

| SMILES | ratio change, negative = inhibition | Potency |
| --- | --- | --- |
| CCCN1C(=O)c2ccc(C(=O)Nc3nccs3)cc2C1=O | inactive |  |
| c1ccc(-c2nc(CSc3nnnn3-c3ccccc3)cs2)cc1 |  | inconclusive: 35.5 µM [fluorescent, single point] |
| O=C(NNc1ncc(C(F)(F)F)cc1Cl)c1c(Cl)cccc1Cl | inconclusive: -31.6% |  |
| Cc1cccc(NC(=O)N2CCN(C(=O)c3nsc4ccccc34)CC2)c1C | inconclusive: 7.35% [at 46 µM] |  |
| Cc1ccc(C2c3c(oc4cc(C)c(C)cc4c3=O)C(=O)N2CCCN2CCOCC2)cc1 (stereo not given) | inactive |  |
| O=S(=O)(O)c1ccc2c(N=Nc3ccc(S(=O)(=O)O)c4ccccc34)c(O)c(S(=O)(=O)O)cc2c1 | inconclusive: 2.45% |  |

(more compounds)

| SMILES | ratio change, negative = inhibition | Potency |
| --- | --- | --- |
| CCOC(=O)C(C(=O)OCC)N(C#N)c1nc(N(C)C)nc(N(C)C)n1 |  | inconclusive: 0.0045 µM [activator, full curve, poor fit] |
| CCOc1ccccc1-n1c(SCC(=O)N2CCCc3ccccc32)nnc1-c1cccnc1 | inactive |  |
| CCCOc1ccc2c3c(c(=O)oc2c1OCCC)CCCC3 | inconclusive: -10.1% |  |
| COc1cc(/C=C2\COC/C(=C\c3ccc(O)c(OC)c3)C2=O)ccc1O |  | inconclusive: 2.82 µM [cytotoxic, partial curve] |
| CC(C)CC(NC(=O)C(CO)NC(=O)C1CCC(=O)N1)C(N)=O (stereo not given) | inconclusive: -2.51% [at 46 µM] |  |
| COc1ccc(N2CCN(C(=O)c3ccc(CS(=O)(=O)c4ccc(OC)cc4)o3)CC2)cc1 | inactive |  |
| O=C1CCc2ccc(OCCCCN3CCN(c4cccc(Cl)c4Cl)CC3)cc2N1 | inconclusive: 1.13% |  |
| COc1cccc(C(=O)Nc2ccc(-n3nncc3-c3ccc(Br)cc3)cc2)c1OC | inactive |  |
| Cc1ccc(-n2c(C)cc(/C=N\NC(=O)CC(=O)NC(C)C)c2C)cc1 | inconclusive: 0.158% |  |
| CCN(CC)S(=O)(=O)c1cccc(C(=O)/C=C2/N(C)c3ccccc3C2(C)C)c1 | inactive |  |
| CCn1c(=O)c2c(nc3n2CCN3c2ccccc2)n(C)c1=O | inconclusive: 19% [at 9.22 µM] |  |
| O=C(NNS(=O)(=O)c1ccc2ccccc2c1)C1CCN(Cc2ccccc2)CC1 | inactive |  |
| Cc1nn2c(=O)cc(COC(=O)c3cccc(NC(=O)COc4ccc(C)c(C)c4)c3)nc2s1 | inconclusive: -31.4% [at 46 µM] |  |
| COc1cc(/C=N/NC(=S)NC2CC3CC2C2C=CCC32)ccc1O (stereo not given) |  | inconclusive: 22.4 µM [rising, single point] |
| Cc1cc(C)c([N+](=O)[O-])cc1NC(=O)CCSc1ccccc1Cl | inconclusive: -18.5% |  |
| O=C(Nc1ccc(NC(=O)c2ccco2)nc1)c1ccco1 | inconclusive: 41.4% [at 46 µM] |  |
| CNc1ncncc1-c1ccccc1OC | inactive |  |
| Cc1ccc(/C(O)=C/C(=O)C(=O)NNC(=O)C(O)(c2ccccc2)c2ccccc2)cc1 | inconclusive: -37.3% |  |
| CCOC(=O)C1(CCCc2ccccc2)CCN(C2CCSCC2)CC1 | inconclusive: -3.14% [at 46 µM] |  |
| O=C1C2CC=C(Cl)CC2C(=O)N1CCCCCCN1C(=O)C2CC=C(Cl)CC2C1=O (stereo not given) | inactive |  |
| CCC(CC)C(=O)Nc1ccc([N+](=O)[O-])cn1 | inconclusive: 4.4% [at 46 µM] |  |
| C/C(CC(=O)NCc1ccco1)=N\NC(=O)Cc1cccc2ccccc12 | inactive |  |
| Cc1ccccc1NCc1cccn1-c1nnc(N2CCOCC2)s1 |  | inconclusive: 15.8 µM [inhibitor, single point] |
| CC(Oc1cc(F)ccc1[N+](=O)[O-])C(=O)Nc1ccc(S(=O)(=O)N2CCCC2)cc1 (stereo not given) | inconclusive: -14.9% [at 46 µM] |  |
| O=C(Nc1ccc([N+](=O)[O-])cc1)Nc1ccc([N+](=O)[O-])cc1 | inconclusive: -10.5% |  |
| CC(=O)Nc1ccc(S(=O)(=O)NC2=C(N3CCN(c4ccc(F)cc4)CC3)C(=O)c3ccccc3C2=O)cc1 |  | active: 11.2 µM |
